Measured values taken from publication PMC9513055.

Protein sequences, listed by entry. Tags and fused reporters are not part of them.
UniProt P14902: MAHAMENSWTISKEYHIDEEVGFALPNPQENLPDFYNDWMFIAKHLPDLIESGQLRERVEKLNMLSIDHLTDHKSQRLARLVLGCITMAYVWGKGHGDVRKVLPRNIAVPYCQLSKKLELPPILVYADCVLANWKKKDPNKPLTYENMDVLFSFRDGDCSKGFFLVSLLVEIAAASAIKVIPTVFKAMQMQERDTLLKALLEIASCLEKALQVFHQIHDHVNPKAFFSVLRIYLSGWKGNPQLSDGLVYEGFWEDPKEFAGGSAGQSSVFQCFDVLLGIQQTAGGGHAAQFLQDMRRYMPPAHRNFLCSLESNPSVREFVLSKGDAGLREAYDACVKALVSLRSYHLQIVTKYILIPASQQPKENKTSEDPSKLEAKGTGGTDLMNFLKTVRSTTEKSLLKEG
UniProt P45974: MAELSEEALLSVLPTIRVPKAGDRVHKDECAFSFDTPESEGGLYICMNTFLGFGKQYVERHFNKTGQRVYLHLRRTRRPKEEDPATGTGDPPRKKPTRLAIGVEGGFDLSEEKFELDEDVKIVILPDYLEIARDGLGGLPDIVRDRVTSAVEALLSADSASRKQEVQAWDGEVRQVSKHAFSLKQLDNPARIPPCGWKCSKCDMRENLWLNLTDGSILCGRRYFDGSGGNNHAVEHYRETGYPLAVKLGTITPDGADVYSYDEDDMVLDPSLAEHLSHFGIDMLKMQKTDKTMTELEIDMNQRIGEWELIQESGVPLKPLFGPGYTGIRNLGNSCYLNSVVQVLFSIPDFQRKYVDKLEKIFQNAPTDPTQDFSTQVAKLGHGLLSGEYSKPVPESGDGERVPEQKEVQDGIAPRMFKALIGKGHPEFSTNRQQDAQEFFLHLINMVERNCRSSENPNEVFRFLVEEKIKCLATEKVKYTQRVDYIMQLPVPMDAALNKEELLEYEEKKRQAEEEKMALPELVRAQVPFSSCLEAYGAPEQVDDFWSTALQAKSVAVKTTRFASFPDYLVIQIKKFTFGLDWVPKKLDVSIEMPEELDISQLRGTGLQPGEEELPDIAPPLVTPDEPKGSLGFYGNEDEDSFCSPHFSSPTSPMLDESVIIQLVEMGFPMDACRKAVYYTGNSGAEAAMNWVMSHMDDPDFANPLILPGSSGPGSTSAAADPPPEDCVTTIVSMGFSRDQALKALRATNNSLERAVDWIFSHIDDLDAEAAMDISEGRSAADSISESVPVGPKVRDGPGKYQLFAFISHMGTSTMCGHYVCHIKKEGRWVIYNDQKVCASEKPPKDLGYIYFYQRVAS
UniProt Q93009: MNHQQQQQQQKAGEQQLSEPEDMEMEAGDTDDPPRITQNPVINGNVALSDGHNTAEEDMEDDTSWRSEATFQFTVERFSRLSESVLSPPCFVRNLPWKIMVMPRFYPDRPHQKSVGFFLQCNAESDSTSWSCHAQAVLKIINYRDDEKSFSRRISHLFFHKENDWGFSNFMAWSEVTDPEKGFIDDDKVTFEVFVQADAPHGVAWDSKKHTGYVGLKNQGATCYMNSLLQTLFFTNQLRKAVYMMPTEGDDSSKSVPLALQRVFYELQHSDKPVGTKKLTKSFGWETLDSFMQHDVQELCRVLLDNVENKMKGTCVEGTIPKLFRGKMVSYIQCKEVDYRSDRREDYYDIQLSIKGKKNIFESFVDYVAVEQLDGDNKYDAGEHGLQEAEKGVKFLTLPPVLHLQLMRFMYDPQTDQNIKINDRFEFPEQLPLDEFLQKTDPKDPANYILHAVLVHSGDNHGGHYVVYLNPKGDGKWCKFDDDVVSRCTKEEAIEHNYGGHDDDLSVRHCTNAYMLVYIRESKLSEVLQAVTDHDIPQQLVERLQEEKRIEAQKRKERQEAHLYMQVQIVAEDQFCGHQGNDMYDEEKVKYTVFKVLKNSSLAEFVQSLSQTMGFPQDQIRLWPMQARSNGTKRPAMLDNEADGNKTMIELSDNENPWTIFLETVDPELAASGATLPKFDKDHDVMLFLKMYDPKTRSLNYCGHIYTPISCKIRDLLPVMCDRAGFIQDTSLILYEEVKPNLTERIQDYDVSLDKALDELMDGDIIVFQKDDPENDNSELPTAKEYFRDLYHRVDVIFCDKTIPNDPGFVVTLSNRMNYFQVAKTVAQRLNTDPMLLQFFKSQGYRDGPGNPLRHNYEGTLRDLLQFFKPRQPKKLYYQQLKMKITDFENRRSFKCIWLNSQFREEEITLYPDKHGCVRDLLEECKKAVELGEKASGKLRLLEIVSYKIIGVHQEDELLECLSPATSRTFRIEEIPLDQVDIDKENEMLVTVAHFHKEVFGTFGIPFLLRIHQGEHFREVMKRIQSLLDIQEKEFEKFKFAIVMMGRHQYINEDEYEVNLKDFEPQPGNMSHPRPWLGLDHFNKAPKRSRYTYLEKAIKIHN
UniProt P19474: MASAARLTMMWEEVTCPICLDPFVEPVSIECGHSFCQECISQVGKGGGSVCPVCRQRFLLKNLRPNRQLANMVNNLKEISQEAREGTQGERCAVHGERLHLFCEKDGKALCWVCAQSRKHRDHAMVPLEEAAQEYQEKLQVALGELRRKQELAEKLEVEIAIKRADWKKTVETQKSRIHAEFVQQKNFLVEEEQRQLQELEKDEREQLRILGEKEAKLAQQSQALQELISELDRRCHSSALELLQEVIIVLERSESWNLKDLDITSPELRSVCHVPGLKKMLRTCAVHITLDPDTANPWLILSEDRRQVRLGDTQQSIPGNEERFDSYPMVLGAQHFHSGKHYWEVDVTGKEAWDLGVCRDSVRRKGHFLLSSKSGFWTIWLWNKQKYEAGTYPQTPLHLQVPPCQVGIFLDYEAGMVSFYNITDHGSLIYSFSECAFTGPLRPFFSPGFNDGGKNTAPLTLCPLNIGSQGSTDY

target: HA-IDO1 (indoleamine 2,3 dioxygenase 1) expressed in HCT116 and SW480 cells (not stated (human or mouse cDNA cloned)) (UniProt P14902); experiment: affinity purification with mass spectrometry; HCT116 and SW480 cells transfected with HA-IDO1 or vector; lysates immunoprecipitated with HA-beads; washed six times (150 mM NaCl, 10 mM HEPES pH 7.4, 0.1% NP-40); eluted with 1 M glycine pH 3.0; MS

Row | Substance | binding
1 | USP5, endogenous in CRC cells (from UniProt P45974 1-858) | binds
2 | USP7, endogenous in CRC cells (from UniProt Q93009 1-1102) | binds
3 | tripartite motif containing 21 (TRIM21), endogenous in CRC cells (from UniProt P19474 1-475) | binds

These are yes or no findings as the source states them, for the method shown. In cells and extracts the contact can be indirect. Here binding means that the protein was enriched with, or labelled near, the bait; the list need not be complete.
